Assay results as given in the supplement of paper PMC12823440, “Inhibitors supercharge kinase turnover through native proteolytic circuits” (Nature, 2025).
Structures can show the parent of a compound that is named as a salt. The list shows a part of the results. Hit calls seldom repeat between salt and free forms of one compound.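 Kinases were expressed as nanoluciferase fusions in K562 cells and luminescence was read every 4 h between 2 and 18 h as percent of control, DMSO set to 100% and a positive control to 0%. A time point counts as decreased when the signal drops significantly (2 sigma). The hit call is the authors' own, does not follow from the count of time points alone, and its rule is not shown.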

Protein sequences, listed by entry. Tags and fused reporters are not part of them.
UniProt P36888, whole entry: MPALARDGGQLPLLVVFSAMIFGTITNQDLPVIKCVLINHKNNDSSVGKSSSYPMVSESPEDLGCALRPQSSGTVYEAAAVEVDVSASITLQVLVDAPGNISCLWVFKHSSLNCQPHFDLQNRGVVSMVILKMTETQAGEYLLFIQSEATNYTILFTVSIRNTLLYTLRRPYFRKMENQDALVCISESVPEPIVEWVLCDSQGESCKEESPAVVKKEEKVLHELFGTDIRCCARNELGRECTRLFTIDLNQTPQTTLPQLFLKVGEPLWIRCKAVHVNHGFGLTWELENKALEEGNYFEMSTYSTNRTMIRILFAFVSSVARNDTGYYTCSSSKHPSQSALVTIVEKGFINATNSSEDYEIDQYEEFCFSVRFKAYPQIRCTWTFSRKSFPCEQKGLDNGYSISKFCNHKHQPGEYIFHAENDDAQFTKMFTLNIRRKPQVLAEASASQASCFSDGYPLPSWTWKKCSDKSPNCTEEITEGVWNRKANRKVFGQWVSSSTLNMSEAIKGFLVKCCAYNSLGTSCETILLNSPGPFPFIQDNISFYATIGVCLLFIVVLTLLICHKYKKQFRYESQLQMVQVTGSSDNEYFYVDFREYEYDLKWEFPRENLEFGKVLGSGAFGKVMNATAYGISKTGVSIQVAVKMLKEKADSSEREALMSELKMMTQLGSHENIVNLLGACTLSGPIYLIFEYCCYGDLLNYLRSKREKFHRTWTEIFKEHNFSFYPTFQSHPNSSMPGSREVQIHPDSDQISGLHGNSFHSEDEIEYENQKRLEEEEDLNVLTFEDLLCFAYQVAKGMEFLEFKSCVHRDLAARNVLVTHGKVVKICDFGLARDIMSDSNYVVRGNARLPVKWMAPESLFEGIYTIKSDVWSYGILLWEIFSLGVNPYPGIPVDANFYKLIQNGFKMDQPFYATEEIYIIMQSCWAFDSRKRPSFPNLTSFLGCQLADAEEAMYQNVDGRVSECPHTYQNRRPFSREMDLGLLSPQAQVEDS

Biological target: FLT3 (UniProt P36888)
Experiment: kinase-Nluc reporter destabilization hit call (1 = scored as downregulated) (binary); higher = compound decreases kinase abundance
Details: K562; 2-18 h

Row | SMILES | kinase-Nluc reporter destabilization hit call
1 | O=c1[nH]c2ccccc2n1C1CCN(Cc2ccc(-c3[nH]c4cc5ncnc5cc4nc3-c3ccccc3)cc2)CC1 [AKT inhibitor VIII] (2.5 µM) | inactive: 0
2 | C[C@H]1CC[C@]2(NC1)O[C@H]1C[C@H]3[C@@H]4CC[C@H]5C[C@@H](O[C@@H]6O[C@H](CO)[C@H](O[C@@H]7O[C@H](CO)[C@@H](O)[C@H](O[C@@H]8OC[C@@H](O)[C@H](O)[C@H]8O)[C@H]7O[C@@H]7O[C@H](CO)[C@@H](O)[C@H](O)[C@H]7O)[C@H](O)[C@H]6O)CC[C@]5(C)[C@H]4CC[C@]3(C)[C@H]1[C@@H]2C [Tomatine] (2.5 µM) | inactive: 0
3 | C=C[C@H]1CN2CC[C@]3(C(=O)Nc4ccccc43)[C@@H]2C[C@@H]1/C(=C\OC)C(=O)OC [Corynoxeine] (2 µM) | inactive: 0
4 | C=CC(=O)Nc1ccc2[nH]c(=O)n(C3CCN(Cc4ccc(-c5nc6cc[nH]c(=O)c6cc5-c5ccccc5)cc4)CC3)c2c1 [Borussertib] (10 µM) | inactive: 0
5 | CCOC(=O)c1c(/C(C#N)=C\N)c2ccc(Cl)c(Cl)c2n1C (10 µM) | inactive: 0
6 | CC(=O)OC(C)(C)/C=C/C(=O)[C@](C)(O)[C@H]1[C@H](O)C[C@@]2(C)[C@@H]3CC=C4[C@@H](C=C(O)C(=O)C4(C)C)[C@]3(C)C(=O)C[C@]12C [Cucurbitacin E] (2.5 µM) | inactive: 0
7 | Cc1[nH]ncc1-c1cc2nc([C@H]3CC4CCN3CC4)[nH]c(=O)c2s1 [(R)-Simurosertib] (10 µM) | inactive: 0
8 | C[C@H]1CC[C@]2(NC1)O[C@H]1C[C@H]3[C@@H]4CC[C@H]5C[C@@H](O)CC[C@]5(C)[C@H]4CC[C@]3(C)[C@H]1[C@@H]2C [Tomatidine] (2 µM) | inactive: 0
9 | O=Cc1cn(Cc2ccc(Cl)cc2)c2ccccc12 [Oncrasin-1] (10 µM) | inactive: 0
10 | O=[N+]([O-])/C=C/c1ccc2c(c1)OCO2 (2.5 µM) | inactive: 0
11 | CCN1CCN(C(=O)Cc2ccc(Nc3ncc(F)c(Nc4ccc(C(=O)Nc5ccccc5Cl)cc4)n3)cc2)CC1 (2.5 µM) | inactive: 0
12 | COc1ccc2c(c[n+](C)c3c4cc5c(cc4ccc23)OCO5)c1OC [Chelerythrine (chloride)] (10 µM) | inactive: 0
13 | COC[C@H]1OC(=O)c2coc3c2[C@@]1(C)C1=C(C3=O)[C@@H]2CCC(=O)[C@@]2(C)C[C@H]1OC(C)=O [Wortmannin] (2.5 µM) | inactive: 0
14 | C[C@H]1CC[C@]2(NC1)O[C@H]1C[C@H]3[C@@H]4CC[C@H]5C[C@@H](O)CC[C@]5(C)[C@H]4CC[C@]3(C)[C@H]1[C@@H]2C [Tomatidine (hydrochloride)] (10 µM) | inactive: 0
15 | COc1ccc(/C=C/c2cc(OC)c(OC)c(OC)c2)cc1 (2.5 µM) | inactive: 0
16 | O=c1cc(O)c2ccccc2o1 [4-Hydroxycoumarin] (10 µM) | inactive: 0
17 | C=CC(=O)N[C@H]1C=C(C)c2c(-c3cnc4ccccc4c3)c3c(N)ncnc3n2C1 (10 µM) | inactive: 0
18 | N#CC(C#N)=Cc1ccc([N+](=O)[O-])c(O)c1 (10 µM) | inactive: 0
19 | O=C(O)c1sc2cc(Cl)ccc2c1Cl (10 µM) | inactive: 0
20 | Cc1n[nH]cc1-c1cc2nc([C@@H]3CC4CCN3CC4)[nH]c(=O)c2s1 [Simurosertib] (2.5 µM) | inactive: 0
21 | Cn1cc(C2=C(c3cn(C4CCN(Cc5ccccn5)CC4)c4ccccc34)C(=O)NC2=O)c2ccccc21 [Enzastaurin] (10 µM) | inactive: 0
22 | CN(C)C(=O)c1ccc(Cn2c(C(=O)O)cc3c(Br)cc(Sc4ccc(Cl)c(Cl)c4)cc32)cc1 [Rheb inhibitor NR1] (10 µM) | inactive: 0
23 | C/C(O)=C(\C#N)C(=O)Nc1cc(Br)ccc1Br (10 µM) | inactive: 0
24 | O=C1c2ccccc2C(=O)c2c1cccc2-c1cnn(C2CCNCC2)c1 [PDK4-IN-1 (hydrochloride)] (10 µM) | inactive: 0
25 | COc1ccc(N(C(=O)Oc2c(C)cccc2C)c2ccnc(Nc3ccc(N4CCN(C)CC4)cc3)n2)c(OC)c1 (2.5 µM) | inactive: 0
26 | C[C@@H]1CC[C@H]2[C@@H](C)C(=O)O[C@@H]3O[C@@]4(C)CC[C@@H]1[C@]32OO4 [Artemisinin] (10 µM) | inactive: 0
27 | CC(C)(C)c1cc(C=C(C#N)C#N)cc(Br)c1O (2.5 µM) | inactive: 0
28 | CC1=C[C@]23C(=O)[C@@H](C=C(CO)[C@@H](O)[C@]2(O)[C@H]1O)[C@H]1[C@@H](C[C@H]3C)C1(C)C [Ingenol] (10 µM) | inactive: 0

Reformatted as a markdown table: part of the list above

| Row | SMILES | kinase-Nluc reporter destabilization hit call |
| --- | --- | --- |
| 12 | COc1ccc2c(c[n+](C)c3c4cc5c(cc4ccc23)OCO5)c1OC [Chelerythrine (chloride)] (10 µM) | inactive: 0 |
| 13 | COC[C@H]1OC(=O)c2coc3c2[C@@]1(C)C1=C(C3=O)[C@@H]2CCC(=O)[C@@]2(C)C[C@H]1OC(C)=O [Wortmannin] (2.5 µM) | inactive: 0 |
